# According to the supplement of paper PMC10735217:
# Counter-ions that a name gives are not always drawn. Some of the results follow. Single values are uncertain here, since repeats match poorly.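 The human kidney-derived cells carry a stably integrated construct of eight TEAD-binding elements driving luciferase, read by luminescence in a drug-repurposing library screen. A compound counts as a hit when its signal is more than five robust Z scores above the plate mean.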
# System: HEK293A TEAD-LUC reporter
# Test: TEAD-luciferase reporter activity (YAP activation), robust Z score vs plate; higher = stronger YAP/TEAD activation
# Conditions: 24 h
Structure (SMILES),TEAD-luciferase reporter activity (compound concentration: 200 nM),TEAD-luciferase reporter activity (compound concentration: 2 uM),TEAD-luciferase reporter activity (compound concentration: 10 uM)
CC(=O)NCC(=O)N1[C@@H]2CC[C@H]1c1ccc(Nc3ncc(C(F)(F)F)c(NC4CCC4)n3)cc12,inactive: 1.39,inactive: -2.36,inactive: -0.684
C[C@@H]1CC[C@@]2(NC1)O[C@H]1C[C@H]3[C@@H]4CC=C5C[C@@H](O[C@@H]6O[C@H](CO)[C@H](O)[C@H](O[C@@H]7O[C@H](CO)[C@@H](O)[C@H](O)[C@H]7O)[C@H]6O[C@@H]6O[C@@H](C)[C@H](O)[C@@H](O)[C@H]6O)CC[C@]5(C)[C@H]4CC[C@]3(C)[C@H]1[C@@H]2C [Solasonine],inactive: -0.526,inactive: -0.108,inactive: 1.01
O=C(Nc1cc(C(F)(F)F)ccc1Oc1ccc(Cl)c2ccccc12)c1cc(Cl)ccc1O,inactive: -0.828,inactive: -0.601,inactive: -1.06
CC(=O)Nc1ccc(CC(=O)Nc2ncc(C)s2)cc1,inactive: -1.02,inactive: -0.223,inactive: -2.19
NNC(=O)CCCCCC(=O)NN,inactive: -1.57,inactive: -1.31,inactive: 1.06
CCOC(=O)N1CSCC1C(=O)O (stereo not given) [telmesteine],inactive: 0.527,inactive: -0.238,inactive: -0.994
[F][Ga]([F])[F] [Gallium Fluoride],inactive: 0.644,inactive: 1,inactive: 2.79
CN(C)CCOc1ccc(/C(=C(/CCCl)c2ccccc2)c2ccccc2)cc1 [toremifene citrate],,inactive: 0.274,
CN(C)CCOc1ccc(/C(=C(/CCCl)c2ccccc2)c2ccccc2)cc1,inactive: 0.116,,inactive: 0.351
N=C(N)NCCNS(=O)(=O)c1cccc2cnccc12,inactive: 4.59,inactive: -0.645,inactive: 2.65
CC(C)NCCCn1c(Sc2cc3c(cc2I)OCO3)nc2c(N)ncnc21,inactive: -1.42,inactive: -2.04,inactive: -3.07
COc1ccc([C@]2(C#N)CC[C@@H](C(=O)O)CC2)c2c1OCCO2,inactive: 1.65,inactive: -1.03,inactive: -0.123
CS(=O)(=O)Nc1cc([C@@H](O)CN[C@H](Cc2ccccc2)c2ccc(OC(F)F)cc2)ccc1O,inactive: -1.25,inactive: -0.397,inactive: -1.38
O=C(Nc1ccc(Cl)c(COc2cccnc2)c1)c1cc(F)cc(N2CCOCC2)c1,inactive: -1.18,inactive: 0.0523,inactive: -0.534
CC(C)(C)c1nc(N2CCN(CCCSc3nccc(O)n3)CC2)cc(C(F)(F)F)n1,inactive: -0.0112,inactive: 0.286,inactive: -0.317
c1ccc(-c2ncc(CN3CCN(c4ncccn4)CC3)[nH]2)cc1,inactive: -1.39,inactive: -0.352,inactive: -1.3
CC(C)COc1ccc(Cc2cnc(N)nc2N)cc1,inactive: -1.14,inactive: 1.81,inactive: -0.463
CC/C=C\C/C=C\C/C=C\CCCCCCCC(=O)O [Linolenic acid],inactive: 2.24,,inactive: -1.21
CC/C=C\C/C=C\C/C=C\CCCCCCCC(=O)O [alpha-Linolenic acid],,inactive: -0.827,
Cn1c(=O)n(CCO)c(=O)c2ccc(C(F)(F)F)cc21,inactive: -0.0622,inactive: -1.23,inactive: 3.44

Structure (SMILES),TEAD-luciferase reporter activity (compound concentration: 200 nM),TEAD-luciferase reporter activity (compound concentration: 2 uM),TEAD-luciferase reporter activity (compound concentration: 10 uM)
COc1ccc(O)cc1,inactive: -0.631,inactive: -1.68,inactive: 0.189
Cc1ccc(-c2ncc(Cl)cc2-c2ccc(S(C)(=O)=O)cc2)cn1 [Etoricoxib],inactive: -1.16,,inactive: 1.66
Cc1ccc(-c2ncc(Cl)cc2-c2ccc(S(C)(=O)=O)cc2)cn1 [etoricoxib (gel)],,inactive: -2.18,
"CCCc1c2oc(C(=O)O)cc(=O)c2cc2c(=O)cc(C(=O)O)n(CC)c12 [nedocromil sodium, Allergan]",inactive: -2.02,inactive: -0.658,inactive: -0.478
CC(C)CN(CCCC(O)(c1ccccc1)c1ccccc1)CC(C)C,inactive: -0.959,inactive: 0.804,inactive: 0.263
CNCC(O)CC12CCC(c3ccccc31)c1ccccc12 (stereo not given),inactive: -0.0189,inactive: 1.7,inactive: -0.677
Fc1ccc2c(CCNCc3cccc(OCC(F)(F)C(F)F)c3)c[nH]c2c1 [idalopirdine],inactive: -1.42,inactive: -0.144,inactive: 2.45
COc1cc([C@@H]2c3cc4c(cc3[C@@H](O[C@@H]3O[C@@H]5CO[C@@H](C)O[C@H]5[C@H](O)[C@H]3O)[C@H]3COC(=O)[C@H]23)OCO4)cc(OC)c1O [etoposide],,inactive: 0.596,
COc1cc([C@@H]2c3cc4c(cc3[C@@H](O[C@@H]3O[C@@H]5CO[C@@H](C)O[C@H]5[C@H](O)[C@H]3O)[C@H]3COC(=O)[C@H]23)OCO4)cc(OC)c1O,inactive: -1.62,,active: 5.53
COc1cccc(OCC2CCCCN2)c1 (stereo not given),inactive: -1.09,active: 5.19,inactive: -1.33
COc1ccc(OC(=O)N(CC(=O)O)C(C)c2ccc(OCCc3nc(-c4ccccc4)oc3C)cc2)cc1 (stereo not given),inactive: -0.733,inactive: -0.935,inactive: 0.12
Cc1cccc(-c2cccc(CN3CCC(NC(=O)c4ccc(F)cc4)CC3)c2)c1,inactive: -1.31,,active: 5.4
CN1Cc2cc(C(=O)N3CCC(C4CCNCC4)CC3)ccc2N[C@@H](CC(=O)O)C1=O,inactive: 0.732,inactive: -0.215,inactive: 2.17
N=C(N)NCC1CCCCCCN1 (stereo not given) [Guanazodine],inactive: -0.706,inactive: -0.557,inactive: 1.57
CCCCc1nc(CCCC)n(Cc2ccc(-c3ccccc3-c3nnn[nH]3)nc2)n1,inactive: 0.654,inactive: -1.11,inactive: 0.554
CCCn1c(=O)n(CCC)c2cc(Cl)ccc21,inactive: 0.678,inactive: -0.255,inactive: 0.421
O=C(O)C1=CS[C@@H]2/C(=C\c3cnc4n3CCOC4)C(=O)N12 [BLI-489 hydrate],inactive: 2.29,,inactive: -1.37
O=C(O)C1=CS[C@@H]2/C(=C\c3cnc4n3CCOC4)C(=O)N12,,inactive: 2.38,
CC(C)(C)c1cc(CN)c(O)c(S(C)(=O)=O)c1 [lemidosul],inactive: -3.59,inactive: -0.659,inactive: -0.789
CON(C)C(=O)[C@H](O)[C@H](Cc1ccccc1)NC(=O)c1cc2cc(Cl)ccc2[nH]1,inactive: 4.22,inactive: 0.00391,inactive: -1.9

# Whole records as entered above.
# CS(=O)(=O)Nc1cc([C@@H](O)CN[C@H](Cc2ccccc2)c2ccc(OC(F)F)cc2)ccc1O is listed with TEAD-luciferase reporter activity (compound concentration: 200 nM): inactive: -1.25; TEAD-luciferase reporter activity (compound concentration: 2 uM): inactive: -0.397; TEAD-luciferase reporter activity (compound concentration: 10 uM): inactive: -1.38
# O=C(Nc1ccc(Cl)c(COc2cccnc2)c1)c1cc(F)cc(N2CCOCC2)c1 is listed with TEAD-luciferase reporter activity (compound concentration: 200 nM): inactive: -1.18; TEAD-luciferase reporter activity (compound concentration: 2 uM): inactive: 0.0523; TEAD-luciferase reporter activity (compound concentration: 10 uM): inactive: -0.534
# COc1cccc(OCC2CCCCN2)c1 (stereo not given) is listed with TEAD-luciferase reporter activity (compound concentration: 200 nM): inactive: -1.09; TEAD-luciferase reporter activity (compound concentration: 2 uM): active: 5.19; TEAD-luciferase reporter activity (compound concentration: 10 uM): inactive: -1.33

# (further entries)

Structure (SMILES),TEAD-luciferase reporter activity (compound concentration: 200 nM),TEAD-luciferase reporter activity (compound concentration: 2 uM),TEAD-luciferase reporter activity (compound concentration: 10 uM)
COc1cc(C(=O)N2CCO[C@](CCN3CCC4(CC3)c3ccccc3CS4=O)(c3ccc(Cl)c(Cl)c3)C2)cc(OC)c1OC (stereo not given in full),inactive: -0.853,inactive: -2.46,inactive: 2.93
COc1ccc(-c2cc(C(OC)(OC)c3ccc(Cl)c(C(N)=O)c3)nn2-c2ccc(OC)cc2)cc1,inactive: -0.856,inactive: -0.372,inactive: 0.293
O=C(CN1CCCC1)N1c2ccccc2Sc2ccccc21,inactive: 0.232,inactive: -0.13,inactive: -0.268
CCC(N(NC(=O)c1cccc(OC)c1C)C(=O)c1cc(C)cc(C)c1)C(C)(C)C (stereo not given),inactive: -1.38,inactive: 2.9,inactive: -0.144
CCCC(=O)C1c2cccc(O)c2C(=O)c2c(O)cccc21,inactive: -0.709,inactive: 1.64,inactive: 1.38
O=C1C=CN(C2OC(CO)C(O)C2O)C(=O)C1 (stereo not given),,inactive: 1.36,
O=C1C=CN(C2OC(CO)C(O)C2O)C(=O)C1 (stereo not given) [3-Deazauridine],inactive: 0.077,,inactive: 1.45
N=C(N)SCCCCCCCC(=O)N[C@@H](CC(=O)O)C(=O)N[C@@H](Cc1ccccc1)C(=O)O,inactive: 0.216,inactive: -0.0205,inactive: 1.04
O=C1/C(=N\c2cccc(C(F)(F)F)c2)c2ccccc2N1c1ccccc1,inactive: -0.777,inactive: -1.22,inactive: -1.61
Nc1ccn([C@@H]2S[C@H](CO)[C@@H](O)[C@@H]2O)c(=O)n1,inactive: -0.949,inactive: 0.628,inactive: -1.48
CCO[C@@H](Cc1ccc(OCCc2ccc(OS(C)(=O)=O)cc2)cc1)C(=O)O [Tesaglitazar],inactive: -1.88,inactive: -1.19,inactive: -0.671
CCN(CC)CCOCCOC(=O)C1(c2ccccc2)CCCC1,inactive: -2.04,inactive: -1.09,inactive: -1.55
Cc1ccc2c(c1)C(=O)CCC21CCC(=O)NC1=O (stereo not given),inactive: 0.192,inactive: -0.0912,inactive: 0.0452
Cc1cc(C(=O)Nc2cc(Oc3ccc4nc(NC(=O)C5CC5)cn4n3)ccc2C)n(C)n1,inactive: -1.1,inactive: -0.472,inactive: 1.6
O=c1c(O)c(-c2ccc(O)cc2)oc2cc(O)cc(O)c12,inactive: -2.16,inactive: -1.25,active: 24.3
CCCCCOc1ccc(NC(=S)NC(=O)c2cccnc2)cc1C(F)(F)F,inactive: -1.66,inactive: -0.712,inactive: 0.86
Cc1nc[nH]c1CN1CCc2c(c3ccccc3n2C)C1=O [Alosetron HCl],inactive: 3.01,inactive: -0.375,inactive: -1.11
COc1ccc(C(=O)N2CCCc3cc(C4=C(C)SC(=O)NN4)ccc32)cc1OC,inactive: 0.814,inactive: -0.55,inactive: -2.3
